This passage reports binding results from publication doi:10.1101/2021.12.08.471779.

Protein sequences, listed by entry. Tags and fused reporters are not part of them. Lines headed by an entry give the natural chain unless they say otherwise; changes in a name come on top.
UniProt P05825, whole entry, looked up, stated change not applied: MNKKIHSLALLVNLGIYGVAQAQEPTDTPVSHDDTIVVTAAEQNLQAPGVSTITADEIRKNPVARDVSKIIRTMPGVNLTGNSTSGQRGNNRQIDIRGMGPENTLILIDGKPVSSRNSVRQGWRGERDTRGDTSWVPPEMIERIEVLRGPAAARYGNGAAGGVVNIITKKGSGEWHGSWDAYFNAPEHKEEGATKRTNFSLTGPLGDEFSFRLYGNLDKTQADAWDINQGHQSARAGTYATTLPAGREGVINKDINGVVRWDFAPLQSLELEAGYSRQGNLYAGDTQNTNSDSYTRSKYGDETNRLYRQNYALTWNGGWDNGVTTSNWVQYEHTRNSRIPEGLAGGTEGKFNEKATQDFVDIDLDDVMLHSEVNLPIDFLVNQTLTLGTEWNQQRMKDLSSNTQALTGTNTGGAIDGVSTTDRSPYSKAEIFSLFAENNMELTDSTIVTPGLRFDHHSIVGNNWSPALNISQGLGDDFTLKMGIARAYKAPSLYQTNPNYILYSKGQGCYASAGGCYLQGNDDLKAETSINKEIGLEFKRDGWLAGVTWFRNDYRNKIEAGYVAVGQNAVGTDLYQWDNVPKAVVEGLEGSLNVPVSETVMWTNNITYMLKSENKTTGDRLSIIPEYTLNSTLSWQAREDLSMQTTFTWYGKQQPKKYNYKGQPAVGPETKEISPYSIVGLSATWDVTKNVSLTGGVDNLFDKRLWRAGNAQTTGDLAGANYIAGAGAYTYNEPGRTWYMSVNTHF
UniProt P02929, whole entry, looked up, stated change not applied: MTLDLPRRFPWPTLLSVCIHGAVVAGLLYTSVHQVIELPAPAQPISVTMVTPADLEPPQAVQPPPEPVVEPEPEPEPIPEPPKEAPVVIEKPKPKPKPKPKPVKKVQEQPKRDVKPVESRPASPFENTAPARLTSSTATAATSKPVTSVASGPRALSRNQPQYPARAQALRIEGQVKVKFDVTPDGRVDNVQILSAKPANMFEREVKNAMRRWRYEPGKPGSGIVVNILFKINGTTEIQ

Common to all, as to experiment: cross-linking
Assay [1] deals with T1, FepA I14C (Escherichia coli K-12) (UniProt P05825).
T1 sequence: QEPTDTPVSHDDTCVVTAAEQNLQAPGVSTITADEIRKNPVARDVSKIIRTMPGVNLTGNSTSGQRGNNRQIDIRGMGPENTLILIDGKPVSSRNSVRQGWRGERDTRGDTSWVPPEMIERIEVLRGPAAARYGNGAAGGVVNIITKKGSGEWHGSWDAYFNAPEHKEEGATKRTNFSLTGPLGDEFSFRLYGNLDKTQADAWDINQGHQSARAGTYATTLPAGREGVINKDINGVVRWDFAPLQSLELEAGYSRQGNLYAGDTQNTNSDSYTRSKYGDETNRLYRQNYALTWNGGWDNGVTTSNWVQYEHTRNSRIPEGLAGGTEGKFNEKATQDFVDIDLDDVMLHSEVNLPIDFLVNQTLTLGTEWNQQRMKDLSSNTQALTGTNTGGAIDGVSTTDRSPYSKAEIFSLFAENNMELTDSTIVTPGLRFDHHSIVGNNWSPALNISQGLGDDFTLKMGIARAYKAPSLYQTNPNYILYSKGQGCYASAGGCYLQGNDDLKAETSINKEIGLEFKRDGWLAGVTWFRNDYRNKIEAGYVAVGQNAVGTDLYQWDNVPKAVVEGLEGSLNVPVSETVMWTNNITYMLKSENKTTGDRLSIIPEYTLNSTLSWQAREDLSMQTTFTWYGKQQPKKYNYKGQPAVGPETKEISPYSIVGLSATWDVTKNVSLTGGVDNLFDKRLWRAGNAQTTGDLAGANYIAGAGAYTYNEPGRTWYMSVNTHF

The target in assay [2] is T2, FepA T13C (Escherichia coli K-12) (UniProt P05825).
T2 sequence: T1 sequence with T13C, C14I

Assay [3] concerns the target T3, FepA V15C (Escherichia coli K-12) (UniProt P05825).
T3 sequence: T1 sequence with C14I, V15C

Substitutions are numbered along the chain they refer to. Results are given in words; binding and its absence hold for the method and conditions named. In cells and extracts the contact can be indirect. Some results given as binding are weak or reduced against the parent protein; the word gives no strength.

Turning to “TonB C18G A209C (from UniProt P02929 1-239)”, the binding entry in assay [1], in assay [2] and in assay [3] was “no binding” each time.

Turning to “TonB C18G H20A A209C (from UniProt P02929 1-239)”, the binding entry in assay [1], in assay [2] and in assay [3] was “no binding” in each case.

As for “TonB C18G H20A N208C (from UniProt P02929 1-239)”, the binding entry in assay [1], in assay [2] and in assay [3] was “no binding” each time.

With “TonB C18G H20A Q160C (from UniProt P02929 1-239)”, the binding result in assay [1], in assay [2] and in assay [3] was “binds” throughout.

On to “TonB C18G H20A R204C (from UniProt P02929 1-239)”, for which the binding entry in assay [1], in assay [2] and in assay [3] was “no binding” throughout.

On to “TonB C18G H20A R212C (from UniProt P02929 1-239)”, for which the binding result in assay [1], in assay [2] and in assay [3] was “no binding” throughout.

For the substance “TonB C18G H20A V206C (from UniProt P02929 1-239)”, the binding result in assay [1], in assay [2] and in assay [3] was “no binding” in each case.

As for “TonB C18G N208C (from UniProt P02929 1-239)”, the binding result in assay [1], in assay [2] and in assay [3] was “binds” throughout.

In the case of “TonB C18G Q160C (from UniProt P02929 1-239)”, the binding result in assay [1], in assay [2] and in assay [3] was “binds” in each case.

Turning to “TonB C18G R204C (from UniProt P02929 1-239)”, the binding result in assay [1], in assay [2] and in assay [3] was “binds” each time.

Take “TonB C18G R212C (from UniProt P02929 1-239)”: the binding entry in assay [1], in assay [2] and in assay [3] was “binds” throughout.

Consider “TonB C18G V206C (from UniProt P02929 1-239)”, for which the binding result in assay [1], in assay [2] and in assay [3] was “no binding” each time.
